The campaign covered roughly 400,000 compounds. About 13,000 (3.2%) were called active. This list was built around the results that the source calls inconclusive (neither active nor inactive); the mix of calls is not that of the screen. The call rests on the fitted dose curve; in most records, active means well fitted cell-killing curve with a large enough effect; inconclusive means small, poorly fitted or top-dose-only effect, or effect the other way; inactive means flat fitted curve, though single readings scatter. A potency beside an inconclusive call is a rough fit, not a confirmed value.
Experiment: qHTS assay for MDR1-selective chemotherapeutics: Primary screen using the drug-selected MDR subline cells KB-V1; further: nearly all actives have a fitted effect of over 60% in size
Details: KB-V1 MDR cells viability, CellTiter-Glo, 72 h; activity change, negative = cytotoxicity: at 46.1 µM (top of the series)
Procedure, shortened: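 KB-V1 MDR subline cells in DMEM (phenol-red free, 10% FBS) exposed to compounds in qHTS concentration series for 72 h at 37 degrees C. Viability read by CellTiter-Glo luminescence; concentration-effect curves fitted after normalization and correction.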
For `COc1ccccc1C(=O)NCC(=O)NC1CCCc2ccccc21` (stereo not given), the Potency was inconclusive: 23.1 µM [cytotoxic, single point]. In the case of `Oc1cccc2oc(=S)[nH]c12`, the Potency is reported as “inactive”. In the case of `O=C(c1cnn2c(C(F)(F)F)cc(-c3ccc(Br)cc3)nc12)N1CCOCC1`, the Potency is reported as inconclusive: 1.84 µM [cytotoxic, full curve]. For `CCCCN(C(=O)c1[nH]c(C)c(C(C)=O)c1C)c1c(N)n(CCCC)c(=O)[nH]c1=O`, the Potency was inconclusive: 16.4 µM [rising, single point]. For `COc1ccccc1N1CCN(c2ccc([N+](=O)[O-])cc2Cl)CC1`, the Potency was active: 5.8 µM. With `CC1(C(=O)Nc2cccc(Br)c2)Cc2ccccc2C(=O)O1` (stereo not given) the activity change, negative = cytotoxicity was inconclusive: -11.1%. For `O=C(NN=C(Cc1ccccc1)Cc1ccccc1)c1ccc(F)cc1`, the Potency was “inactive”. In the case of `N/C(Cc1ccc([N+](=O)[O-])cc1)=N\OC(=O)c1ccc([N+](=O)[O-])cc1`, the Potency is reported as inconclusive: 29.1 µM [cytotoxic, single point]. With `O=C(O)CCCNC(=O)CC1S/C(=N/N=C/c2ccccc2O)NC1=O` (stereo not given) the Potency was inconclusive: 14.6 µM [rising, partial curve, poor fit]. In the case of `Fc1cccc(F)c1-n1c(CN2CCOCC2)csc1=S`, the Potency is reported as “inactive”. With `CCOC(=O)N1CCN(C(=O)Nc2ccc3nc(C)sc3c2)CC1` the Potency was “inactive”. In the case of `CC(=O)c1cccc(CN2CCC(C(=O)Nc3ccc(Oc4cccnc4)cc3)CC2)c1`, the Potency is reported as inconclusive: 23.1 µM [cytotoxic, partial curve, poor fit]. In the case of `Cc1ccc2nc(N3CCN(Cc4nnnn4C4CCCC4)CC3)c(C#N)cc2c1`, the Potency is reported as active: 20.6 µM. For `CCCSc1nnc(CSc2nc3ccccc3s2)n1-c1ccccc1`, the Potency was inconclusive: 25.9 µM [cytotoxic, partial curve]. For `COC(=O)CCN(C1CCCCC1)S(=O)(=O)c1ccc(S(=O)(=O)N2CCCCC2)cc1`, the Potency was inconclusive: 1.64 µM [cytotoxic, full curve, poor fit]. In the case of `O=C(CC1(O)C(=O)Nc2cc(Cl)cc(Cl)c21)c1ccccc1O` (stereo not given), the Potency is reported as “inactive”. With `O=C(NCCc1ccccc1)c1coc(=O)c(Br)c1` the Potency was inconclusive: 29.1 µM [cytotoxic, single point]. For `COc1cc(CNc2ccc(N3CCOCC3)cc2)ccc1OCC(=O)NC(C)(C)C`, the Potency was “inactive”. With `O=C(C[n+]1ccc(/C=N/O)cc1)N1CCCCC1` the activity change, negative = cytotoxicity was inconclusive: 32.4%. In the case of `C/C(=N\NC(=O)c1cc2ccccc2cc1O)c1ccc(C)o1`, the Potency is reported as inconclusive: 14.6 µM [cytotoxic, partial curve]. In the case of `COC(=O)c1ccc2c(=O)n(CCCCCC(=O)N3CCN(c4ccccc4)CC3)c(=O)[nH]c2c1`, the Potency is reported as inconclusive: 23.1 µM [cytotoxic, single point]. In the case of `CCc1ccc(C(=O)CSc2nc3ccccc3c(=O)[nH]2)cc1`, the Potency is reported as inconclusive: 18.4 µM [cytotoxic, single point]. In the case of `O=C(O)c1cccc(-n2sc3ccccc3c2=O)c1`, the Potency is reported as “inactive”. In the case of `Cc1ccc(CN2C(=O)CCC2C(=O)N2CCN(c3ccccc3)CC2)cc1` (stereo not given), the Potency is reported as inconclusive: 13 µM [cytotoxic, partial curve]. In the case of `N#CN=C(c1ccccc1)c1ccccc1`, the Potency is reported as inconclusive: 20.6 µM [rising, single point]. In the case of `Cc1ccc(S(=O)(=O)Nc2cc3c4c(c2)C(C)C(=O)N4CCC3)cc1` (stereo not given), the Potency is reported as inconclusive: 18.4 µM [cytotoxic, partial curve, poor fit]. With `CCc1nnc(NC(=O)CSc2nnc(C)c(=O)n2N)s1` the Potency was inconclusive: 25.9 µM [rising, partial curve, poor fit]. For `COC(=O)c1ccccc1NC(=O)c1ncoc1-c1ccco1`, the Potency was “inactive”. In the case of `O=c1c(-c2ccco2)[n+]([O-])c2ccccc2n1OCc1ccccc1F`, the Potency is reported as inconclusive: 3.26 µM [cytotoxic, full curve]. With `O=C(O)C(c1ccccc1)N1CCCCC1` (stereo not given) the Potency was “inactive”. For `CCCCC1Cc2[nH][nH]c(=O)c2C(c2ccc(F)cc2)O1` (stereo not given), the Potency was “inactive”. With `O=C(c1ccc(S(=O)(=O)NCc2ccco2)cc1)N1CCN(Cc2ccccc2)CC1` the Potency was inconclusive: 18.4 µM [cytotoxic, single point]. With `CC(=O)NC1(C(F)(F)F)C(=O)Nc2c1c(=O)[nH]c(=O)n2CC(C)C` (stereo not given) the Potency was inconclusive: 9.2 µM [rising, partial curve, poor fit]. With `Fc1cc2[nH]c(=S)[nH]c2cc1Cl` the Potency was active: 3.66 µM. With `CCN(c1ccccc1)S(=O)(=O)c1cccc(C(=O)Nc2ccc(C)cn2)c1` the activity change, negative = cytotoxicity was inconclusive: -33.7% [cytotoxic]. For `Cc1ccccc1SCC(=O)NNC(=O)c1ccncc1`, the Potency was “inactive”. With `Cc1csc(C(C)N(C)C(=O)c2ccc(OC3CCN(Cc4ccccn4)CC3)cc2)n1` (stereo not given) the Potency was inconclusive: 7.31 µM [cytotoxic, partial curve, poor fit]. With `CCn1c(SCC(=O)Nc2cc(Cl)ccc2OC)nnc1C1CC1` the Potency was inconclusive: 29.1 µM [cytotoxic, single point]. With `O=C(/C=C/c1cccc([N+](=O)[O-])c1)Nc1ccc(NC(=O)c2cccs2)cc1` the Potency was “inactive”. With `O=C(N/N=C/c1ccccc1OC(=O)c1ccc2c(c1)OCO2)c1cccc(F)c1` the Potency was inconclusive: 29.1 µM [cytotoxic, single point]. With `O=C(C1CC1)N1CCc2cc(S(=O)(=O)NCC3COc4ccccc4O3)ccc21` (stereo not given) the Potency was inconclusive: 23.1 µM [cytotoxic, single point]. For `COc1ccc(C(C)(O)c2nc(-c3ccccc3)cs2)cc1` (stereo not given), the Potency was inconclusive: 25.9 µM [cytotoxic, single point]. For `O=C(C1CCN(S(=O)(=O)c2cccc3nsnc23)CC1)N1CCc2ccccc21`, the Potency was inconclusive: 23.1 µM [cytotoxic, single point]. With `Cc1ccc(CCNC(=O)C(NS(=O)(=O)c2ccc3c(c2)oc(=O)n3C)C(C)C)cc1` (stereo not given) the Potency was “inactive”. For `Cc1ccc(-n2ccc(=O)c(-c3ccnc(SCc4cccc(Cl)c4)n3)n2)cc1`, the Potency was inconclusive: 16.4 µM [cytotoxic, partial curve]. For `O=C(Nc1cccc(C(=O)OCc2cc(=O)n3nc(C4CC4)sc3n2)c1)c1cccc(F)c1`, the Potency was inconclusive: 16.4 µM [rising, partial curve]. With `COC(=O)c1ccccc1S(=O)(=O)Nc1cc(=O)c2ccccc2[nH]1` the Potency was “inactive”. In the case of `Cc1cccc(Nc2ncnc3nc[nH]c23)c1`, the Potency is reported as inconclusive: 18.4 µM [rising, single point]. For `COc1ccc(CCN(Cc2cccs2)S(=O)(=O)c2ccc(-n3cnnn3)c(OC)c2)cc1OC`, the Potency was active: 2.59 µM. For `Cc1ccc2nc(N(CCCN(C)C)C(=O)c3ccc(S(=O)(=O)N4CCc5ccccc5C4)cc3)sc2c1`, the Potency was active: 20.6 µM. With `O=C(NC1CCCCC1)C(c1cccs1)N(Cc1cccs1)C(=O)c1cccs1` (stereo not given) the Potency was inconclusive: 18.4 µM [cytotoxic, single point]. For `S=C(NN=Cc1ccc2c(c1)OCO2)NN=Cc1ccc2c(c1)OCO2`, the Potency was inconclusive: 13 µM [cytotoxic, partial curve, poor fit]. In the case of `CCCn1nc(C(=O)Nc2cccc(C(=O)OC)c2)c2ccccc2c1=O`, the Potency is reported as inconclusive: 23.1 µM [cytotoxic, single point]. For `COc1ccccc1C(=O)N1CCC(C(=O)c2ccc(F)cc2)CC1`, the Potency was active: 9.2 µM. For `Cc1nonc1C1CCCN1C(=O)c1cc(COc2cccc(C(F)(F)F)c2)on1` (stereo not given), the Potency was inconclusive: 32.6 µM [cytotoxic, single point]. In the case of `COc1ccccc1CNC(=O)CSc1ccc(-c2cccs2)nn1`, the Potency is reported as inconclusive: 14.6 µM [cytotoxic, single point]. In the case of `COc1ccc(-n2c(SCC(=O)Nc3ccc([N+](=O)[O-])cc3OC)nc3ccccc32)cc1`, the Potency is reported as “inactive”. In the case of `COC(=O)c1ccc(NC(=S)NC2CCCCC2C)cc1` (stereo not given), the Potency is reported as inconclusive: 29.1 µM [cytotoxic, single point]. With `O=C(CCC(=O)N1CCN(Cc2ccc(F)cc2)CC1)Nc1nnc(C2CCCCC2)s1` the Potency was “inactive”. For `COc1cc2c(cc1OC)C(COc1ccc3c(C)cc(=O)oc3c1)N(C(=O)c1cccc(C)c1)CC2` (stereo not given), the Potency was “inactive”. For `O=C(NCc1ccc(Cl)cc1)c1ccc2c(=O)n(CC3CCCO3)c(=S)[nH]c2c1` (stereo not given), the Potency was inconclusive: 14.6 µM [cytotoxic, partial curve]. For `COc1ccc(NC(=O)CSc2nncn3c2cc2oc(C)cc23)cc1OC`, the Potency was inconclusive: 23.1 µM [rising, single point]. In the case of `CCc1nc2ccc(C(=O)Nc3ccc(NC(C)=O)cc3)cn2c1N(C)CCC(C)C`, the Potency is reported as inconclusive: 23.1 µM [cytotoxic, single point]. In the case of `COc1ccc(OC)c(NS(=O)(=O)c2ccc3c(c2)CCC(=O)N3)c1`, the Potency is reported as inconclusive: 14.6 µM [cytotoxic, partial curve, poor fit]. In the case of `O=C(O)/C=C/C(=O)Nc1ccc(OC(F)(F)F)cc1`, the Potency is reported as inconclusive: 20.6 µM [rising, single point]. For `Fc1ccc(Nc2nc3ccccc3c3nncn23)c(Cl)c1`, the Potency was “inactive”. In the case of `O=C(OCC(=O)N1CCc2ccccc2C1)c1ccc(O)cc1`, the Potency is reported as “inactive”. For `CCN(CC(=O)NCCc1ccc(S(N)(=O)=O)cc1)Cc1ccccc1`, the Potency was inconclusive: 29.1 µM [rising, single point]. With `Cc1ccc(S(=O)(=O)N(C)CC(=O)O/N=C(\N)c2cccc([N+](=O)[O-])c2)cc1` the Potency was inconclusive: 23.1 µM [cytotoxic, single point]. For `Cc1ccc2oc(=O)c3cc(C(=O)Nc4ccc(F)cc4F)sc3c2c1`, the Potency was inconclusive: 0.411 µM [rising, full curve, poor fit].
On the % scale 0 is the no-effect control and ±100 the full control effect; potency means the concentration at half of the fitted maximal effect.
